Measurements reported in PubChem BioAssay AID1259308 (NCATS, 2017).
In all, the deposit lists about 59,000 reagents; this is a part drawn at random. About 1,510 of all reagents (2.6%) were called active. 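Calls use total luciferase alone and ignore viability, so some active siRNAs may act by altering cell number.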 Further read-outs or replicates are left out here. Reagent sequences are not shown.

Aim: 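Genes whose loss raises luciferase production in HEK293 cells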 (primary screen)
System: human HEK293 embryonic kidney cells stably expressing firefly luciferase (HEK-CMV-Luc2-Hygro)
Reagent: single siRNA against human genes, 0.8 pmol siRNA per well
Timing: 72 h
Measurement: 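Reporter luminescence and viable-cell signal on separate replicate plates, given as percent of non-targeting control and median/MAD z-scores, plus per-cell luciferase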
Direction: total luciferase, z-score: higher = more reporter protein produced
Hit rule: 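An siRNA counts as active if its total luciferase robust z-score exceeds 3; genes with two or more such siRNAs out of three were retested with fresh siRNAs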
Calls: active = raised luciferase; inactive = no rise

no.	gene symbol	PubChem SID	total luciferase, z-score	activity call
1	LRRC56	SID160732351	1.05	inactive
2	LRRC56	SID160755205	0.915	inactive
3	LRRC56	SID160755206	1.08	inactive
4	RIMBP2	SID160736407	1.08	inactive
5	RIMBP2	SID160736408	-1.01	inactive
6	RIMBP2	SID160736409	-1.18	inactive
7	SLC46A1	SID160730536	-0.583	inactive
8	SLC46A1	SID160754815	-1.99	inactive
9	SLC46A1	SID160754816	-0.95	inactive
10	DYRK1B	SID160721600	-0.471	inactive
11	DYRK1B	SID160721602	0.923	inactive
12	DYRK1B	SID160721603	-0.0302	inactive
13	IBTK	SID160737414	-0.447	inactive
14	IBTK	SID160737415	-0.188	inactive
15	IBTK	SID160737418	-0.712	inactive
16	RUNDC3B	SID160759430	0.208	inactive
17	RUNDC3B	SID160759431	2.57	inactive
18	RUNDC3B	SID160759432	0.549	inactive
19	LSS	SID160760817	-2.31	inactive
20	LSS	SID160760918	-0.354	inactive
21	LSS	SID160761021	-0.312	inactive
22	PRDX6	SID160722573	1.1	inactive
23	PRDX6	SID160722574	0.617	inactive
24	PRDX6	SID160722575	0.436	inactive
25	ROMO1	SID160724832	2.61	inactive
26	ROMO1	SID160757908	3.85	active
27	ROMO1	SID160757909	-1.72	inactive
28	PCGF1	SID160752679	7.54	active
29	PCGF1	SID160752680	0.288	inactive
30	PCGF1	SID160752682	1.11	inactive
31	TJP1	SID160718090	-0.617	inactive
32	TJP1	SID160718091	0.221	inactive
33	TJP1	SID160718092	-1.83	inactive
34	SMCO3	SID160767691	0.0436	inactive
35	SMCO3	SID160767692	0.155	inactive
36	SMCO3	SID160767693	-0.137	inactive
37	TMEM190	SID160724859	1.29	inactive
38	TMEM190	SID160724860	0.00523	inactive
39	TMEM190	SID160758565	-0.581	inactive
40	ACOT4	SID160756039	0.818	inactive
41	ACOT4	SID160756040	0.418	inactive
42	ACOT4	SID160756041	-0.684	inactive
43	PLSCR4	SID160745560	-2.28	inactive
44	PLSCR4	SID160745561	-1.56	inactive
45	PLSCR4	SID160745562	-0.577	inactive
46	ZNF705G	SID160726146	1.14	inactive
47	ZNF705G	SID160726147	0.591	inactive
48	ZNF705G	SID160726148	2.92	inactive
49	NMS	SID160756866	0.428	inactive
50	NMS	SID160756868	2.19	inactive
51	NMS	SID160756869	0.0939	inactive
52	QSOX1	SID160715351	-1.35	inactive
53	QSOX1	SID160715352	-1.8	inactive
54	QSOX1	SID160731610	0.655	inactive
55	SULT1A2	SID160717494	1.27	inactive
56	SULT1A2	SID160724091	1.37	inactive
57	SULT1A2	SID160724092	1.86	inactive
58	EYA3	SID160762771	1.4	inactive
59	EYA3	SID160762779	1.34	inactive
60	EYA3	SID160762788	-0.151	inactive
61	ZNF517	SID160764418	-1.41	inactive
62	ZNF517	SID160764419	0.753	inactive
63	ZNF517	SID160764420	-0.249	inactive
64	SHH	SID160716694	-1.48	inactive
65	SHH	SID160716695	-0.435	inactive
66	SHH	SID160716696	-1.48	inactive
67	NCLN	SID160745317	2.45	inactive
68	NCLN	SID160745318	1.63	inactive
69	NCLN	SID160745319	0.22	inactive
70	ANXA11	SID160717938	-1.19	inactive
71	ANXA11	SID160717948	0.107	inactive
72	ANXA11	SID160717959	-0.949	inactive
73	C17orf67	SID160764174	-3.03	inactive
74	C17orf67	SID160764175	-1.23	inactive
75	C17orf67	SID160764176	0.0182	inactive

No new results follow: an excerpt of the list.
no.	gene symbol	PubChem SID	total luciferase, z-score	activity call
10	DYRK1B	SID160721600	-0.471	inactive
11	DYRK1B	SID160721602	0.923	inactive
12	DYRK1B	SID160721603	-0.0302	inactive
13	IBTK	SID160737414	-0.447	inactive
14	IBTK	SID160737415	-0.188	inactive
15	IBTK	SID160737418	-0.712	inactive
16	RUNDC3B	SID160759430	0.208	inactive
17	RUNDC3B	SID160759431	2.57	inactive
18	RUNDC3B	SID160759432	0.549	inactive
19	LSS	SID160760817	-2.31	inactive
20	LSS	SID160760918	-0.354	inactive
21	LSS	SID160761021	-0.312	inactive
